Results taken from patent US7514406B2, “Methods for inhibiting deacetylase activity” (Fred Hutchinson Cancer Research Center, priority 2001, dated 2009).

Test system: wild type BY4741 cells vs sir2, hst1, hst2, hst3, hst4 deletion mutants
Assay: Whole genome DNA microarray transcriptional profiling
Type: cell-based, S. cerevisiae
Settings: 15 μM S1
From the text: In addition to SIR2, the S. cerevisiae genome encodes four SIR2 homologues: HST1-4 (Homologue of Sir Two) (Brachmann, C. B., et al. (1995) Genes Dev. 9, 2888-902). Hst2p is located in the cytoplasm and is responsible for virtually all the NAD^+-dependent deacetylase activity detected in a cellular lysate (Smith, J. S., et al., (2000) Proc. Natl. Acad. Sci. USA 97, 6658-63). Its relevant biological substrate is unknown. Hst1p is required for transcriptional repression of meiotic genes (Xie, J., et al. (1999) EMBO J. 18, 6448-54), whereas little is known about the cellular function of Hst3p or Hst4p.
Strains for the DNA array experiments for the whole genome analysis were obtained from Research Genetics (wild type BY4741: MATa his3, leu2, met15, […] or isogenic sir2, hst1, hst2, hst3 and hst4 deletion mutants). Several colonies from fresh cultures were inoculated into synthetic complete medium with 2% glucose, grown overnight at 30° C., diluted to 0.5−1×10^6 cell/ml and grown for an additional 6-9 hours until reaching a density of 0.5−1×10^7 cells/ml. […] Total RNA was extracted using the hot acid phenol method. […] Briefly, yeast microarrays were constructed employing a set of ˜6200 or specific PCR primer pairs (Research Genetics, Huntsville, Ala.), which were used to amplify each open reading frame (orf) of the yeast genome. […]

## O=C1CCc2c(ccc3ccccc23)O1 [S1, 1,2-dihydro-3H-naphtho[2,1-b]pyran-3-one]
  share of transcriptional changes mediated through HST1: 9%
  share of transcriptional changes mediated through SIR2: 88%
